PubChem BioAssay AID1259308, NCATS, 2017
The deposit covers about 59,000 reagents; this is an unselected part. In the full data, about 1,510 (2.6%) are marked active. 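Calls use total luciferase alone and ignore viability, so some active siRNAs may act by altering cell number.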 Entries without a mark were called inactive. The numbers tell different reagents against one gene apart. Further read-outs or replicates are left out here.

- Test: 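Genes whose loss raises luciferase production in HEK293 cells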 (primary screen)
- Cell system: human HEK293 embryonic kidney cells stably expressing firefly luciferase (HEK-CMV-Luc2-Hygro)
- Reagent: single siRNA against human genes, 0.8 pmol siRNA per well
- Time to read-out: 72 h
- Measurement: 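Luciferase light (ONE-Glo) measured on one replicate plate set and viability (CellTiter-Glo) on the other, scaled to a negative control siRNA, with robust z-scores and luciferase per cell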
- Reading the numbers: total luciferase, z-score: higher = more reporter protein produced
- Hit rule: 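Active when the median/MAD z-score for overall luciferase is greater than 3; a gene was taken forward for validation with new siRNAs if at least two of its three siRNAs passed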
- Meaning of the calls: active = raised luciferase; inactive = no rise

PPIAP19 (peptidylprolyl isomerase A pseudogene 19) #1 gave total luciferase, z-score -0.372.
Against PPIAP19 (peptidylprolyl isomerase A pseudogene 19) #2, the values are total luciferase, z-score -0.0554.
Against PPIAP19 (peptidylprolyl isomerase A pseudogene 19) #3, the values are total luciferase, z-score 2.58.
Silencing of TGFBRAP1 #1 came out at: total luciferase, z-score -0.628.
TGFBRAP1 #2 scored total luciferase, z-score -0.34.
TGFBRAP1 #3 gave total luciferase, z-score -0.203.
Depletion of MT4 (metallothionein 4) #1 gave: total luciferase, z-score -1.1.
For MT4 (metallothionein 4) #2, the entry reads total luciferase, z-score 0.94.
For MT4 (metallothionein 4) #3, the values are total luciferase, z-score -0.169.
For SRRT (serrate, RNA effector molecule) #1 the deposit lists total luciferase, z-score -0.721.
Depletion of SRRT (serrate, RNA effector molecule) #2 came out at: total luciferase, z-score -0.145.
Against SRRT (serrate, RNA effector molecule) #3 the deposit lists total luciferase, z-score 1.61.
For ACTL10 (actin like 10) #1, the values are total luciferase, z-score 0.194.
After knock-down of ACTL10 (actin like 10) #2, the record shows total luciferase, z-score 1.35.
After knock-down of ACTL10 (actin like 10) #3, the record shows total luciferase, z-score -1.27.
FAXDC2 (fatty acid hydroxylase domain containing 2) #1 gave total luciferase, z-score 0.198.
Knock-down of FAXDC2 (fatty acid hydroxylase domain containing 2) #2 came out at: total luciferase, z-score 0.365.
Knock-down of FAXDC2 (fatty acid hydroxylase domain containing 2) #3 came out at: total luciferase, z-score 2.05.
For ANKK1 (ankyrin repeat and kinase domain containing 1) #1, the entry reads total luciferase, z-score 0.191.
For ANKK1 (ankyrin repeat and kinase domain containing 1) #2 the deposit lists total luciferase, z-score 0.011.
With knock-down of ANKK1 (ankyrin repeat and kinase domain containing 1) #3, the screen gave total luciferase, z-score -1.32.
With knock-down of CD44 (CD44 molecule (IN blood group)) #1, the record shows total luciferase, z-score -0.259.
CD44 (CD44 molecule (IN blood group)) #2 gave total luciferase, z-score -0.64.
Knock-down of CD44 (CD44 molecule (IN blood group)) #3 resulted in: total luciferase, z-score 0.319.
Knock-down of CNPPD1 (cyclin Pas1/PHO80 domain containing 1) #1 gave: total luciferase, z-score -0.105.
CNPPD1 (cyclin Pas1/PHO80 domain containing 1) #2 scored total luciferase, z-score -0.471.
CNPPD1 (cyclin Pas1/PHO80 domain containing 1) #3 scored total luciferase, z-score 0.354.
For CAP2 (cyclase associated actin cytoskeleton regulatory protein 2) #1 the deposit lists total luciferase, z-score -0.456.
CAP2 (cyclase associated actin cytoskeleton regulatory protein 2) #2 scored total luciferase, z-score 3.9 (active).
For CAP2 (cyclase associated actin cytoskeleton regulatory protein 2) #3, the values are total luciferase, z-score 0.143.
With knock-down of NUP58 (nucleoporin 58) #1, the record shows total luciferase, z-score -2.37.
After knock-down of NUP58 (nucleoporin 58) #2, the screen gave total luciferase, z-score -1.57.
NUP58 (nucleoporin 58) #3 scored total luciferase, z-score 0.832.

Looked up above.
ANKK1 (ankyrin repeat and kinase domain containing 1) #1, total luciferase, z-score = 0.191
Under “total luciferase, z-score”, NUP58 (nucleoporin 58) #1 has -2.37
TGFBRAP1 #2, total luciferase, z-score: -0.34
Result of ACTL10 (actin like 10) #1 under “total luciferase, z-score”: 0.194
Value of MT4 (metallothionein 4) #3 under “total luciferase, z-score”: -0.169
